Reference: publication PMC9478404
No constants are given. Whether binding was seen depends on the method and setting.

The chains behind the UniProt entries cited, without tags or fusion partners. Where a name states a change or a piece, a line headed by the entry shows the natural chain unless it says otherwise. A line that says so, or that is headed by a name, gives the form on record, which may keep a tag or linker. Residues count along the entry.
B-Myb DNA-binding domain (B-Myb^34–183) (P10244, residues 34-183): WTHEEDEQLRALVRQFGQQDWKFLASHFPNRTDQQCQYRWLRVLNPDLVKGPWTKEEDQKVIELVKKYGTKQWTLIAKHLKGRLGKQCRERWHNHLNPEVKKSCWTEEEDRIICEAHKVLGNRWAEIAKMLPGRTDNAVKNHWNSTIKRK
B-Myb^440–510 (N-terminal half of the NRD) (P10244, residues 440-510): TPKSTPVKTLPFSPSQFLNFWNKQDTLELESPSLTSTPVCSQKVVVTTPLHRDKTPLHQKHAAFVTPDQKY
B-Myb NRD^510–600 LEED mutant (L541, E542, E543, D544 to alanine) (P10244-1, form named): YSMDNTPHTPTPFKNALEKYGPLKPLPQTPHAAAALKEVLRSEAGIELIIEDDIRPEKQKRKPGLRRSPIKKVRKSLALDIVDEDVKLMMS
B-Myb NRD^510–600 LLL mutant (L541, L545, L549 to alanine) (P10244-1, form named): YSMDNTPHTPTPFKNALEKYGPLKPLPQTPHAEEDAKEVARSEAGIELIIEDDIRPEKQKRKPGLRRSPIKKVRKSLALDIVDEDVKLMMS
B-Myb NRD^510–600 TTT mutant (T515A, T518A, T520A), phosphorylated by Cdk2-CycA (P10244-1, form named): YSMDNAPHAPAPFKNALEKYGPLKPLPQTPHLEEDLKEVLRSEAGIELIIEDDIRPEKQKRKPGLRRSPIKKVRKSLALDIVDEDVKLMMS

Key:
Assay in all cases: ITC; DBD (500 μM) titrated into NRD (50 μM) at 19 °C; 150 mM NaCl, 20 mM Tris, 1 mM BME (pH 8); MicroCal VP-ITC; mean of three technical replicates; both purified
[1] = molecular target: B-Myb NRD^510–600 LEED mutant (L541, E542, E543, D544 to alanine) (human) (UniProt P10244)
[2] = molecular target: B-Myb NRD^510–600 LLL mutant (L541, L545, L549 to alanine) (human) (UniProt P10244)
[3] = molecular target: B-Myb NRD^510–600 TTT mutant (T515A, T518A, T520A) (human) (UniProt P10244)
[4] = molecular target: B-Myb NRD^510–600 TTT mutant (T515A, T518A, T520A), phosphorylated by Cdk2-CycA (human) (UniProt P10244)
[5] = molecular target: B-Myb^440–510 (N-terminal half of the NRD) (human) (UniProt P10244)

B-Myb DNA-binding domain (B-Myb^34–183) (from UniProt P10244-1 34-183) (domain or fragment)
binding [1]: no binding (tested: DBD 500 μM titrated into NRD 50 μM)
binding [2]: no binding (tested: DBD 500 μM titrated into NRD 50 μM)
binding [3]: no binding (tested: DBD 500 μM titrated into NRD 50 μM)
binding [4]: no binding (tested: DBD 500 μM titrated into NRD 50 μM)
binding [5]: no binding (tested: DBD 500 μM titrated into NRD 50 μM)
